Results from patent US20080213860.
Substitutions are numbered along the chain they refer to. For at least one entry, the source does not settle the construct or the ends of the probe. For some of these results: Weaker means in comparison with the reference protein, sequence or condition of that experiment. Tags and fusion partners may be left off the protein sequences shown.

What was measured:
Test in all cases: enzyme reaction in vitro
[1] = system: T1, BsmI R451D (Bacillus stearothermophilus NUB36); conditions: ds-DNA cleavage; protein in an extract; only the site is given
T1 sequence: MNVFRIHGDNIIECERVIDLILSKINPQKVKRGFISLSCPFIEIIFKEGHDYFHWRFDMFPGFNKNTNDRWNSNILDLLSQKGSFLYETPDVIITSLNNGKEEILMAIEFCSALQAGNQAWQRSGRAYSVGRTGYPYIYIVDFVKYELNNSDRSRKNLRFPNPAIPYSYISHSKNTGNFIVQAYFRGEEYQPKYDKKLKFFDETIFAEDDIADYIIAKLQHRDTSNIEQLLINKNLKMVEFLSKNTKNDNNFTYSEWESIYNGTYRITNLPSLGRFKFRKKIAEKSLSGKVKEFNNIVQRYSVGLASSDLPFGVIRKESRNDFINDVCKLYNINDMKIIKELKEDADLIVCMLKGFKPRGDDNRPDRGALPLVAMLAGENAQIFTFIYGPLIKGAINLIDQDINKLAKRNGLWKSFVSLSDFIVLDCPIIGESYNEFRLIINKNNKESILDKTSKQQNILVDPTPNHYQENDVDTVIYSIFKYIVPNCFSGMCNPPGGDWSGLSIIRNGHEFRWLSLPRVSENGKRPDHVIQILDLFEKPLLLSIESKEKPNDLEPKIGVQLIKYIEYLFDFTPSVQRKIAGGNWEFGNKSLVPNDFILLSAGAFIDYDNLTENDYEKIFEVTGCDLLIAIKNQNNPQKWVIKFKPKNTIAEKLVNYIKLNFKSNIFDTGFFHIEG

[2] = system: T2, BsmI R126D (Bacillus stearothermophilus NUB36); conditions: low nicking activity, low ds-DNA cleavage; protein in an extract; only the site is given
T2 sequence: T1 sequence with R126D, D451R

[3] = system: T3, BsmI R519D (Bacillus stearothermophilus NUB36); conditions: low nicking activity, low ds-DNA cleavage; protein in an extract; only the site is given
T3 sequence: T1 sequence with D451R, R519D

[4] = system: T4, BsmI R153D (Bacillus stearothermophilus NUB36); conditions: ds-DNA cleavage; protein in an extract; only the site is given
T4 sequence: T1 sequence with R153D, D451R

## GCATTC [pBR322 supercoiled plasmid (one BsmI site)]
[1]
  activity on this sequence: active
[2]
  activity on this sequence: less active
[3]
  activity on this sequence: less active
[4]
  activity on this sequence: active
